Measurements reported in PubChem BioAssay AID743121 (NCATS, 2013)
Shown is a random part of about 26,000 reagents tested. Over the whole deposit, 167 (0.63%) got an active call. 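Calls are per gene from RSA p-values that are not deposited; an individual active-marked siRNA can sensitise only weakly.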 The numbers tell different reagents against one gene apart. Reagent sequences are not shown.

- Test: 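Knock-downs that sensitise breast cancer cells to camptothecin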 (primary screen)
- Cell system: MDA-MB-231 cells, a human breast cancer line
- Reagents: single siRNA against human genes, 20 nM siRNA (0.8 pmol per well)
- Time to read-out: 120 h (drug added 48 h after transfection, read 72 h later)
- Conditions: camptothecin 20 nM (about EC30) for 72 h; vehicle 0.1% DMSO in parallel plates
- Measurement: 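CellTiter-Glo ATP signal, scaled to control siRNA as percent viability; sensitisation given as log2 of untreated divided by camptothecin-treated viability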
- Reading the numbers: log2 vehicle/camptothecin viability: higher = stronger sensitisation to camptothecin; viability with camptothecin and viability without drug: higher = more viable cells
- Call rule: 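Active genes have an RSA gene-level p-value below 0.001, computed from the ratios of their separate siRNAs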

The first 5 entries as a preview:
Target gene,reagent no.,log2 vehicle/camptothecin viability,viability with camptothecin (% of control),viability without drug (% of control),Call
TLL2,1,-0.0949,61.4,57.5,inactive
TLL2,2,-0.0342,74.1,72.4,inactive
TLL2,3,-0.0793,102,96.1,inactive
TLL2,4,0.0964,44.5,47.6,inactive
CD151,1,-0.257,99,82.8,inactive

Main list, repeating the preview:
Target gene,reagent no.,log2 vehicle/camptothecin viability,viability with camptothecin (% of control),viability without drug (% of control),Call
TLL2,1,-0.0949,61.4,57.5,inactive
TLL2,2,-0.0342,74.1,72.4,inactive
TLL2,3,-0.0793,102,96.1,inactive
TLL2,4,0.0964,44.5,47.6,inactive
CD151,1,-0.257,99,82.8,inactive
CD151,2,-0.0783,40,37.9,inactive
CD151,3,-0.477,73.2,52.6,inactive
CD151,4,-0.0365,61,59.5,inactive
MAD2L1,1,-0.349,74.9,58.8,inactive
MAD2L1,2,-0.402,78.4,59.3,inactive
MAD2L1,3,-0.453,98.3,71.8,inactive
MAD2L1,4,-0.696,80.2,49.5,inactive
SSR4,1,-0.311,123,99.5,inactive
SSR4,2,0.0626,61.1,63.8,inactive
SSR4,3,-0.293,41.8,34.1,inactive
SSR4,4,0.165,55.9,62.6,inactive
SSR4,5,0.237,69.1,81.4,inactive
SSR4,6,-0.268,114,94.6,inactive
CDK15,1,0.715,51.4,84.4,inactive
CDK15,2,1.11,14.1,30.6,inactive
CDK15,3,-0.0913,89.7,84.2,inactive
CDK15,4,-0.565,39.4,26.6,inactive
PPARA,1,-0.231,99.2,84.5,inactive
PPARA,2,0.044,86.4,89.1,inactive
PPARA,3,0.799,40.2,70,inactive
USP6NL,1,-0.154,80,71.9,inactive
USP6NL,2,-0.0601,87.8,84.3,inactive
USP6NL,3,0.158,28.8,32.1,inactive
USP6NL,4,-0.118,101,92.8,inactive
CD4,1,0.348,26.5,33.7,inactive
CD4,2,-0.459,80.7,58.7,inactive
CD4,3,-0.124,100,92,inactive
CD4,4,0.0121,98.8,99.6,inactive
MYO3A,1,-0.525,145,100,inactive
MYO3A,2,0.0856,55.5,58.9,inactive
MYO3A,3,0.0593,85.3,88.9,inactive
MYO3A,4,-0.198,55,48,inactive
CACNG3,1,-0.0933,62.7,58.8,inactive
CACNG3,2,0.0599,77.8,81.1,inactive
CACNG3,3,0.625,38.4,59.3,inactive
CACNG3,4,-0.43,89.2,66.2,inactive
RSKR,1,-0.0274,87.7,86.1,inactive
RSKR,2,0.323,45.1,56.4,inactive
RSKR,3,-0.31,25.6,20.7,inactive
RSKR,4,0.0226,93.7,95.1,inactive
CYCS,1,-0.339,87.9,69.4,inactive
CYCS,2,-0.624,103,66.7,inactive
CYCS,3,0.0915,41.9,44.6,inactive
CYCS,4,-0.184,82.7,72.8,inactive
CYCS,5,-0.337,54.9,43.5,inactive
PF4,1,0.282,101,122,inactive
PF4,2,0.526,41.7,60,inactive
OR1D2,1,0.987,39.2,77.7,inactive
OR1D2,2,-0.0456,106,102,inactive
OR1D2,3,-0.413,65,48.8,inactive
OR1D2,4,-0.15,58.1,52.4,inactive
OR1D2,5,-0.174,51.3,45.5,inactive
OR1D2,6,-0.633,87.6,56.5,inactive
HTR1A,1,-0.0725,29.9,28.4,inactive
HTR1A,2,-0.491,102,72.4,inactive
HTR1A,3,-0.266,113,94.1,inactive
HTR1A,4,-0.107,48.5,45,inactive
KCNJ13,1,-0.301,45.7,37.1,inactive
KCNJ13,2,-0.381,64.2,49.3,inactive
KCNJ13,3,0.367,44.3,57.2,inactive
KCNJ13,4,-0.119,52.4,48.2,inactive
HDAC8,1,0.126,87.6,95.5,inactive
HDAC8,2,0.00864,39.2,39.4,inactive
HDAC8,3,1.15,16.5,36.5,inactive
HDAC8,4,-0.0941,91.5,85.7,inactive
